Some results were stated once for a whole list of compounds, not compound by compound.
Tested on: CHO cells stably expressing pylRS and tRNApyl and an IgG directed against her2/neu containing an amber codon
Experiment: Growth and viability of pylRS/tRNApyl cell line treated with lys azide and dnnAA
Type: cell-based
Conditions: 2 mM dnnAA with 0.5 mM lys-azide, seven days
Source text: To examine whether the dnnAAs of the invention could function to improve the viability of cells containing pylRS and tRNApyl we monitored the growth and viability of a cell line, stably expressing pylRS and tRNApyl. For this assay CHO cells stably expressing pylRS and tRNApyl and an IgG directed against her2/neu containing an amber codon in the heavy chain, shown to effectively incorporate nnAA into the expressed IgG thus producing an antibody containing a nnAA, were used for this experiment. Despite a high expression level of pylRS/tRNApyl pair, this cell line has very robust cell growth characteristics when grown in medium lacking nnAA. The presence of a highly expressed target containing an amber codon likely has a protective effect on the cells by supplying them with high levels of amber codons that absorb the amber suppression activity and protects the cells from the effects of background amber suppression at essential genes. However, upon addition of the nnAA (lys-azide) to the growth medium, and activation of the amber suppression machinery, a decrease in cell growth rate is observed. […] Cell viability and cell numbers were monitored daily over seven days. […]

SMILES	cell density
C=CCOC(=O)NCCCCCC(=O)O [Formula VIIB.1, 6-{[(prop-2-en-1-yloxy)carbonyl]amino}hexanoic acid]	over 1.5 ×10^6 cells/mL
CC(C)(C)OC(=O)NCCCCCC(=O)O [Formula VIIB.4, 6-{[(tert-butoxy)carbonyl]amino}hexanoic acid]	over 1.5 ×10^6 cells/mL
